Experimental data published in the supplement of paper PMC3334620.
The full ranking holds about 33,000 sequences; the median of “E-score (-0.5 to 0.5)” is about -0.0014, and the highest 2% start at about 0.25. The list shows a part of the results.

target: T1, Cad1 (UniProt P24813); test: PBM E-score (8-mer binding enrichment) (E-score (-0.5 to 0.5)); higher = stronger / more preferred TF binding; conditions: protein concentration: 100 nM; construct: GST-full length
T1 sequence: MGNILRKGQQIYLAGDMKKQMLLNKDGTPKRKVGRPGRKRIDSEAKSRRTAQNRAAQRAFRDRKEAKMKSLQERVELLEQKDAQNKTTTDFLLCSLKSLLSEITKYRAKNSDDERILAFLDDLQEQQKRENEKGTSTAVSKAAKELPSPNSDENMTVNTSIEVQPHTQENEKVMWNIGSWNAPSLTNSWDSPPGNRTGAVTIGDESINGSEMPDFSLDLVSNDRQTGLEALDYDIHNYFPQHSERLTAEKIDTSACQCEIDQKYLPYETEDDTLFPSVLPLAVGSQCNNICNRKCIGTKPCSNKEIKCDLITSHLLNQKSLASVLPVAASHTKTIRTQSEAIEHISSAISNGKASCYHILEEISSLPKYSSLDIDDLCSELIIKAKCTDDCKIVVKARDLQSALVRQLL
Outline: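 PURExpress in vitro transcription/translation supplied GST-tagged yeast transcription factors, either full-length or DNA-binding domain. Applied at about 100-200 nM to universal all-10-mer Agilent arrays double-stranded by primer extension, the bound protein was detected with fluorescent anti-GST. E-scores, modified Wilcoxon-Mann-Whitney statistics, were given by the Universal PBM Analysis Suite to ungapped eight-base words pooled with their reverse complements after masliner normalisation.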

Sequence	PBM E-score
AGTTATTG	0.127
ACGGGAGT	0.194
AAGCCCTA	0.0261
CTTAACAC	0.127
CCCTGCAA	-0.0707
CCTTGGCA	-0.261
GTATCAAA	0.142
CACATTCC	0.0513
CCCATAGG	0.00632
AAGGGGCC	-0.211
CTGGCCAA	0.157
CGGCTATC	-0.0996
GTTATCGA	0.0927
ATGCGCGC	0.238
ACTTAAAA	0.0782
ACGGTTGC	-0.0529
ACATAGCC	0.181
AGAGAACA	0.108
CCCTATTC	-0.0694
AGGAGCCG	-0.315
ATTCCCGC	0.202
CCCGCTGA	-0.0893
AGGCAGAG	-0.0635
AACTATTC	0.113
ACTCCACC	-0.0217

Sequence	PBM E-score
GGTGGTCA	-0.172
TGTGGAAA	0.0953
ATCTTTTC	0.159
TCCCAGGA	-0.243
GATAGAAA	0.00079
ACCTGCCT	-0.12
CTAGATAG	0.0131
ATACGGAA	0.151
CCGATCGA	0.0111
AGTCACGC	-0.175
AAATCTTC	-0.0471
GAATTCCA	0.117
ACTTGGGC	-0.169
CCTAAGAG	0.0476
AGAGAACC	-0.19
TGGCCCCA	-0.295
ACAGCGAC	-0.21
CGGCAGTA	-0.0865
AGGTAGAG	-0.0989
ATTCCCGG	0.296
GCTCAAGC	-0.166
AAAAATAA	0.207
TTAAGAAA	-0.0462
AGAAAATA	0.132
CACGTGGG	-0.126

Reformatted comma-delimited: part of the list above
Sequence,PBM E-score
TTAAGAAA,-0.0462
AGAAAATA,0.132
CACGTGGG,-0.126

More entries:

Sequence	PBM E-score
CCCGGTCC	-0.222
AAGCTTGC	-0.0904
GGACGCTA	-0.137
ACCGCGAC	0.199
CCGTAGAA	-0.122
GGCCCATA	-0.133
AGAGCAGA	-0.148
ATATGTAC	0.202
CGCGCACC	0.0571
CGAATTCG	0.171
GAACGCGA	0.111
AGACGGAT	0.201
ATAGAAAA	0.117
AAGCCGCT	0.0602
CAGAGGCA	-0.0209
ACCGTATA	-0.00739
CATAATAA	-0.0382
AATTGCGT	0.139
ACTCTCAC	0.033
AGATACTG	0.158
AATGACGA	0.162
AAATGTGA	0.139
AGCGCTCA	0.154
CCTTGTCA	-0.111
CACACAGC	0.107

Sequence	PBM E-score
CCTGAATA	0.17
AATATTGC	0.294
GAAGCACC	-0.125
ATCTTGCA	0.202
CCGGACAC	-0.0858
CCGTGCAG	-0.0124
GACTACTC	0.0182
CAAAGATA	0.182
TACTACCA	-0.123
ACGTGTAC	-0.142
AGTATAAT	0.163
CTCGCCGA	-0.0375
ATCGGATC	0.227
CAATCCAA	0.0494
AGGCGTTA	0.0348
GCATATCC	0.095
CGTCCAGA	-0.0971
CACTACTC	0.0957
ATTGGGAG	-0.152
ACCAAAGA	0.0914
TAGCAATA	0.102
CGTATAGC	0.00542
AGAACAAT	0.117
GTCGTAAA	0.0215
CCAACACC	-0.109

Sequence	PBM E-score
AAAGTGTG	0.0308
AAAACTCC	-0.184
CACGATAG	0.0883
ACACGGTC	-0.0715
AGTTACAG	-0.0124
GCAGTCAA	-0.147
AGCTGGGC	-0.0598
AGCGGAAT	-0.0284
CGAACGCC	-0.0886
GATCATTA	0.115
CCAAATGA	0.168
CTAAAAAG	-0.115
CAGTGTCG	-0.161
GCCAAGGC	-0.224
AAATTCGA	0.0357
GGCATTGA	-0.0489
AGATCGAC	0.0578
TCCACACA	-0.0609
AATATTTA	0.213
ATGCACTG	0.0824
AACTACCC	-0.174
ATACGTGC	-0.0538
CACAGGTG	-0.0858
CTGCCCAA	-0.0126
GTTGACAA	0.166

Sequence	PBM E-score
AGATTTAA	0.0822
AAGGTAGA	-0.18
CTAAGGCA	-0.18
ACACGCGC	0.0948
CGTCCCAC	-0.078
AATCGTAG	0.149
CCGCACAA	-0.0324
AAAGAATT	0.0721
ATGCACCG	-0.0432
CTCGAATA	-0.0823
GAGTTGCA	0.0539
GGTCCACC	-0.276
AGCAACAC	0.152
CAGGGTAG	-0.0304
AGTCTACG	-0.175
AGCTATCA	0.118
GTCCAGAC	-0.0351
ACTCCCGA	0.0151
AACGGTAA	-0.0293
GTAGGGTA	0.0364
GAAAGAAA	0.183
GCTACTGA	0.0457
CCTGCAAA	-0.117
CAGTGACC	-0.17
CCGGGCTA	-0.289

Reformatted comma-delimited: entries from further up.
Sequence,PBM E-score
AGCTATCA,0.118
GTCCAGAC,-0.0351
ACTCCCGA,0.0151
AACGGTAA,-0.0293

Rewritten as comma-separated lines: part of the list above.
Sequence,PBM E-score
AGCAACAC,0.152
GTCCAGAC,-0.0351
CCTGCAAA,-0.117

(further entries)

Sequence	PBM E-score
CTAGTCAC	-0.0877
GTAAGCAC	0.163
TACAAGAA	0.0619
TGGATTAA	-0.073
AATTTACC	0.104
GTGCTAAC	0.103
CTCCCGTA	-0.191
AGCCGAAA	-0.073
CGCTGACA	0.297
GGCTTGCA	-0.0157
CGTGCCTC	-0.0429
GAACTGAA	-0.0794
GCACTTAC	0.015
TAAGGACA	0.118
AGTCCGGC	0.108
CCACAATC	0.056
ATCATATA	0.0551
CTCCTATA	-0.327
ACAATGCT	-0.0332
CTGACACC	-0.17
ACGGACCA	0.243
ACATAGAG	-0.176
ACGTCTGA	0.183
CAGGAAGA	-0.0775
AATCGACT	-0.039

Sequence	PBM E-score
CAATAGCC	-0.162
CTAGGAGC	-0.118
CAAAGAGG	0.0231
GATTCATA	0.0689
GACACGAC	0.105
CCTCGCTC	0.0626
TGGTTCAA	0.0942
ACGTGACT	-0.115
CCTAGCAA	-0.0559
ATGTGGGG	-0.289
AGCTGTAG	0.0163
CGACCGCA	-0.0906
AAGATGAT	0.0317
AATGACTA	-0.018
ACTATAAG	0.0228
GAGGTGGC	-0.149
ACATTGGT	0.0584
GCCCCCAA	-0.277
GGTAGAAC	-0.0501
TACGAGGA	-0.0805
AATACTTA	-0.00068
CCGCAGTA	-0.0843
GTAAGCAA	0.345
ACATTAGT	0.234
CTGACATC	0.0683

Sequence	PBM E-score
ATTTCAGC	-0.126
CTTTTGGC	-0.0325
AATGCAAC	0.0897
TAATTCGA	0.143
ATACTTAA	0.178
CAGTTTAA	-0.129
ACCTGGGA	0.107
CAGGGGCC	-0.136
ACTCGAGA	-0.0156
GCGGGCAC	-0.0217
CTATAAGA	0.101
GCCCTTAC	-0.186
ACCACCAG	0.0286
TCGAAACA	0.251
CTTCCAGC	-0.141
CTCCTCAG	-0.29
TCCGTCGA	0.167
GTCATCGA	0.11
CGGAGGTA	-0.0635
ATGCTTTA	0.0615
TCCTGCGA	0.112
GGCGCGCA	0.195
CTTGTAAC	0.0992
AGGTTACG	-0.0843
CTCGAGTA	0.2

Sequence	PBM E-score
AGAGGTCG	-0.0586
AGCTTTTC	-0.0601
GATCAGCC	-0.0165
TGCAATAA	0.136
CCGTTAAG	0.0396
CGGATTGA	0.118
AACGTGAC	-0.0166
CGGTAGAA	-0.304
ATTGACGG	0.111
AGCGGATC	0.0864
AGTTTGGG	0.123
AATCAGTG	-0.0375
AATGATGC	0.0987
AGCAAAAC	0.0772
GAGGTACC	-0.257
AAGTGGTC	-0.0894
CTGCCATC	0.00399
AGAAGTAA	0.153
ATTCTGTA	-0.0178
CGACACCC	0.00473
ACCCGCTA	-0.0304
CGCATCTA	0.225
CATGTCCC	-0.119
AAATTATG	0.255
CATGAGAA	0.00981

Sequence	PBM E-score
CCTGGGTA	-0.191
CTTCCGTC	-0.133
AGCCCCAT	-0.128
CCATGGGA	-0.0604
CCGGGGCA	-0.127
CCATTCAC	-0.0396
AAAACCCT	-0.0196
ACTCGGCG	0.00224
CTTGCTAA	-0.13
CCATCTAG	-0.233
CGTTTACA	0.0127
GATACTGA	0.14
GCTGCTAC	-0.141
CCCATTAC	-0.133
GGGCCGAC	-0.0388
CCACCAAA	-0.0383
ACCGTATG	-0.105
AGTGAAGG	-0.0678
ACCAAGAT	0.0875
CAGGTAAA	0.143
GGTTGACA	-0.0649
ACATAACT	0.0912
CACACCGA	0.079
ACAGGGAT	-0.0781
ATCGAAGC	-0.142

Sequence	PBM E-score
CATGCGAG	-0.0416
GCTGAGCC	-0.119
AGAAAATG	0.166
AGCTTCAG	-0.0911
AAGAAAGG	0.0418
CAGGGACC	-0.36
CGTCGTTC	0.221
ACCAACCA	0.0516
CGGTGTGA	0.203
GAATGCGC	0.199
ATGACTAA	0.377
CCTGGGGA	-0.43
CAAGAGCG	-0.0357
ACCGATGC	-0.0627
GTAGACAC	-0.0178
AATGTGGA	0.0542
CATTCAGG	-0.0709
CATAGGGC	-0.163
GACGGGTA	-0.249
ACAGGCAA	0.0554
GTGAAGCA	-0.0409
GCCAAAGA	-0.173
AGAGCGGC	-0.0338
ATATGATC	0.0924
ATTGCCAA	0.0207

Sequence	PBM E-score
GGCATGCC	0.00621
CTCATGCA	0.0438
TTATTAAA	0.307
CATGCTGC	-0.00626
CTGATAGA	0.105
ATTTTCTC	0.0775
AGTAGCCA	-0.282
AAAGACCT	-0.12
AGATTCGA	-0.0634
GATTGATA	0.233
CTCAAGTC	-0.208
AACGGGGC	0.0501
CCCTTATA	-0.0522
AAGGAAAG	-0.149
CGTAGTCC	-0.064
AAGGTGCA	-0.116
CTTGTGAA	-0.0875
AACGTCAA	0.0199
AATATGGT	0.171
ATAGGACC	-0.125
AAACGCCA	0.114
ATCGGGCA	-0.0837
TCAAACCA	0.188
ACCAGCAG	-0.16
CACTCTAC	0.189

Sequence	PBM E-score
ACATTCAT	0.0781
AGCCAGGA	-0.0204
CGGTGGTC	0.00946
GCGGAGCC	-0.101
GTATTAGA	0.26
GGCTCACC	-0.24
TGCAACAA	0.137
CATGCTAG	0.0845
ATACCACC	0.0548
CATATGTC	-0.0107
ATAAGATG	0.00928
ACTTGGGA	-0.197
AATTCAAG	0.0949
GCTCAAAA	0.0411
CTCTATCC	-0.0689
CTTGCTCC	-0.0856
GTCGACTA	0.234
GGTTCTAC	-0.157
ATCGATGA	0.13
